The target in this experiment is rmLRP6-His6 (R&D Systems) (mouse (printed as rm)) (UniProt O88572). Put plainly: AlphaScreen, biotinylated huWise and rmLRP6-His6.

Sequences of proteins named here, by UniProt entry; tags and fusion partners are left off. A change or cut given only in a name is not applied to a line headed by its entry. Residues count along the entry.
UniProt O88572, residues 20-1370: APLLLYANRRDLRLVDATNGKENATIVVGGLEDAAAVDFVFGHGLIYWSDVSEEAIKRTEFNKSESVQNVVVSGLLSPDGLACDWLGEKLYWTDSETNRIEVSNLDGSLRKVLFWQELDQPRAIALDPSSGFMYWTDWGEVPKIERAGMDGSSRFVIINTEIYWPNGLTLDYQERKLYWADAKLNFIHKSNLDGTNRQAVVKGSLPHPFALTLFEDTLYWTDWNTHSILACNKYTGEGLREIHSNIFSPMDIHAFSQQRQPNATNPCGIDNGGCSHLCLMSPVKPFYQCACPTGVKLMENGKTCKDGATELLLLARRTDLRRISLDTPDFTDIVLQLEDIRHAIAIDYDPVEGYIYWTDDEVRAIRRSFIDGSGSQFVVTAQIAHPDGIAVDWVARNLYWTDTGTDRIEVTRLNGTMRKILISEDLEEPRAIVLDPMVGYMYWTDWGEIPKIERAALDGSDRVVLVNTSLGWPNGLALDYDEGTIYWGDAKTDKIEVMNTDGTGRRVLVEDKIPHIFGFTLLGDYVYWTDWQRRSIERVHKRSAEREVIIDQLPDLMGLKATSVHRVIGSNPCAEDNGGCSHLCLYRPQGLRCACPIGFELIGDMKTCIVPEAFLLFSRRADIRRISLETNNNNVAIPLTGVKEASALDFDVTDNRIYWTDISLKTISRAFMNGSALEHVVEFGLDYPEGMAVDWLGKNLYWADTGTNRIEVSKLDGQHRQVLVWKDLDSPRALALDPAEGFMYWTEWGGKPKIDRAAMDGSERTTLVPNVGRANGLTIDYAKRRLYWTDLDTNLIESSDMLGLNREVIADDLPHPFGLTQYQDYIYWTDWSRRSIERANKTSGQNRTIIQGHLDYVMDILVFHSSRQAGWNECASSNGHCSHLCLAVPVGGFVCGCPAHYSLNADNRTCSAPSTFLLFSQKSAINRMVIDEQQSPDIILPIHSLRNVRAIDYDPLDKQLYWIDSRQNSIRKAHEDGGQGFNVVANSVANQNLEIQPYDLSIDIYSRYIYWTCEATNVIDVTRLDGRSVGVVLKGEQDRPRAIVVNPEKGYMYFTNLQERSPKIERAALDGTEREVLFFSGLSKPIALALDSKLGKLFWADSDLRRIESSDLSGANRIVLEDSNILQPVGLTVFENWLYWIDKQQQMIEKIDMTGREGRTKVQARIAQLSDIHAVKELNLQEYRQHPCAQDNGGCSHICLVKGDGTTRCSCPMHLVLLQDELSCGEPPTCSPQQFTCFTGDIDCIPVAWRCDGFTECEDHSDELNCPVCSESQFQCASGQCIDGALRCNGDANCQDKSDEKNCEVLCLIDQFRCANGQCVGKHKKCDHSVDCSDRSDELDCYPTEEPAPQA
UniProt Q6X4U4: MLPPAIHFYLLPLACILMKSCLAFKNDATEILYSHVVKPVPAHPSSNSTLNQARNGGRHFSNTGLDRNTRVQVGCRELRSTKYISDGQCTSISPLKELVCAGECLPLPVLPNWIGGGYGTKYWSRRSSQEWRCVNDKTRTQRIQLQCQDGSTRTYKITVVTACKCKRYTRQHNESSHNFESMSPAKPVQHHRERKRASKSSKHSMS

These are yes or no findings as the source states them, for the method shown. Some entries that bind do so weakly or less than the wild type.

“biotinylated recombinant human WISE (from UniProt Q6X4U4 24-206) (ligand)”: the binding entry is recorded as “binds”.

Values taken from patent US20120288507A1.
